Source: US8420884B2, “Models of malignant brain cancer, and therapeutic siRNAs against oncogenic signaling pathways, and methods and kits for uses therefor” (Tufts Medical Center Inc., priority 2008, dated 2013)
For at least one compound, name, drawing or mass did not settle the structure.

Assays:
[1] = test system: GBM tumor cells expressing EGFR^vIII; assay: Rapamycin growth inhibition by XTT assay; format: cell-based, mouse; conditions: 96 hours
[2] = test system: GBM tumor cells expressing EGFR^WT; assay: Rapamycin growth inhibition by XTT assay; format: cell-based, mouse; conditions: 96 hours

CO[C@H]1C[C@@H]2CC[C@@H](C)[C@@](O)(O2)C(=O)C(=O)N2CCCC[C@H]2C(=O)O[C@H]([C@H](C)C[C@@H]2CC[C@@H](O)[C@H](OC)C2)CC(=O)[C@H](C)/C=C(\C)[C@@H](O)[C@@H](OC)C(=O)[C@H](C)C[C@H](C)/C=C/C=C/C=C/1C [Rapamycin, rapamycin]
inhibition of cell growth by XTT assay [1]: but not in cells expressing EGFR^vIII | inhibition of cell growth by XTT assay [2]: dose response growth inhibition effect
